The subject of data set [1] is C57/BL mice. Put plainly: Acute effects in the tail-flick test (Experiment 2). To be noted: mouse, in vivo. The procedure: (§1) Male C57/BL mice (IMP, Lodz, Poland), 22-24 g of body weight were group-housed in the standard laboratory cages and kept in a temperature-controlled colony room (21+2° C.) with a 12-hr light/dark cycle (light on: 07:00, off: 19:00). Commercial food and tap water were available ad libitum. Each experimental group consisted of 7-28 mice per treatment. All mice were used only once.
(§2) The intensity of the heat stimulus was adjusted so that the baseline tail-flick latency was ˜3 s. […] Each response assessment consisted of two separate measurements taken at different portions of the tail (spaced by 1.5-2 cm) and separated by 15 s. The mean of these responses was used for subsequent comparisons.
A general note: In hot-plate and tail-flick tests a longer latency is read as antinociception.

Data set [2] deals with C57/BL mice. Particulars: mouse, in vivo. The procedure: as §1, §2

The structures appear in SMILES notation. Entries after “also recorded” stand apart in the source; their conditions may differ.

With `CN1CC[C@]23c4c5ccc(O)c4O[C@H]2[C@@H](O)C=C[C@H]3[C@H]1C5` [Morphine, reference compound], the “tail-flick responses (AUC) compared to placebo+placebo” value in the data set with C57/BL mice [1] was “statistically significantly longer tail-flick responses; also recorded: differed significantly”. Further, in the data set on C57/BL mice [2], the “Fold Shift of morphine ED50” value came out at 6.44.

Values taken from patent US20040186081A1, “Naaladase inhibitors for treating opioid tolerance” (Guilford Pharmaceuticals Inc., priority 2003, published 2004).
